Measured values from the supplement of paper PMC6411743.
± gives the standard deviation of the averaged measurements. This is one part of the list.

Chains of the proteins cited; added tags and fusions are not shown. Lines headed by an entry give the natural chain unless they say otherwise; changes in a name come on top.
UniProt P98194: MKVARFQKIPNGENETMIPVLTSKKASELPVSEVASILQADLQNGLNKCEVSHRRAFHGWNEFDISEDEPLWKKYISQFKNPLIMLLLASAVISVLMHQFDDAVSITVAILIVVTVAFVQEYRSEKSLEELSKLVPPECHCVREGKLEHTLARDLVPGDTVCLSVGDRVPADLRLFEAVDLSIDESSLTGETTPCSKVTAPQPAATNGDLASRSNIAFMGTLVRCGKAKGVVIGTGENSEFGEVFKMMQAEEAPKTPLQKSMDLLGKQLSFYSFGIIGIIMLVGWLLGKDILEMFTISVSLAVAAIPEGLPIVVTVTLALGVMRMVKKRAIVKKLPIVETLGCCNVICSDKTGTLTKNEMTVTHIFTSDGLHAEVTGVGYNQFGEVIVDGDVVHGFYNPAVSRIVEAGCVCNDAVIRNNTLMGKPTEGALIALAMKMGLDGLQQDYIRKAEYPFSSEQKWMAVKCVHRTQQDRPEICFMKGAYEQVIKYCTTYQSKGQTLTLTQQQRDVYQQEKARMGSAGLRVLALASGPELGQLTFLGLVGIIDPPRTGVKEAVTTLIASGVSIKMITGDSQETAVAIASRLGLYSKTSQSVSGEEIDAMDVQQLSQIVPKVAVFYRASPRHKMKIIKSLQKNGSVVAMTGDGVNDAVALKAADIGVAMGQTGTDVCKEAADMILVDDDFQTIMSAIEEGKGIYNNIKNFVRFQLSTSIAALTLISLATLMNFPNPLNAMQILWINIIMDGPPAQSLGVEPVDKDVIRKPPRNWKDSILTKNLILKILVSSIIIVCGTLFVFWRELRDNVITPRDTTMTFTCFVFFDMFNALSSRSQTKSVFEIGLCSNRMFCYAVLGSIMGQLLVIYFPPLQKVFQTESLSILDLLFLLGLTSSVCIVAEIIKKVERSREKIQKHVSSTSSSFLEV
UniProt Q9BUN8: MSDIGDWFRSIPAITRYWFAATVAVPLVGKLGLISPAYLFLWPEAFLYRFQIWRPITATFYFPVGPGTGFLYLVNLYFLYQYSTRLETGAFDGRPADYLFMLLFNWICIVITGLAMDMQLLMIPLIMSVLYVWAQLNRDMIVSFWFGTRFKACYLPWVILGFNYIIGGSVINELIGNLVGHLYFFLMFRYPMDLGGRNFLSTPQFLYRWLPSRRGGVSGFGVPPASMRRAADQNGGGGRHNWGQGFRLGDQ
UniProt Q9UMS0: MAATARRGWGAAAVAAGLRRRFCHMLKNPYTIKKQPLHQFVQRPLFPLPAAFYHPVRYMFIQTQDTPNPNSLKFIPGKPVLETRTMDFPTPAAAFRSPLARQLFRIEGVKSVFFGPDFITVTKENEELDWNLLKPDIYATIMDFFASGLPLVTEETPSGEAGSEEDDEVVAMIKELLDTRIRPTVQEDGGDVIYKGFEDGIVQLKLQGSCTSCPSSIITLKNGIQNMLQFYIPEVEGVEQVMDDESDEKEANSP
UniProt O60879: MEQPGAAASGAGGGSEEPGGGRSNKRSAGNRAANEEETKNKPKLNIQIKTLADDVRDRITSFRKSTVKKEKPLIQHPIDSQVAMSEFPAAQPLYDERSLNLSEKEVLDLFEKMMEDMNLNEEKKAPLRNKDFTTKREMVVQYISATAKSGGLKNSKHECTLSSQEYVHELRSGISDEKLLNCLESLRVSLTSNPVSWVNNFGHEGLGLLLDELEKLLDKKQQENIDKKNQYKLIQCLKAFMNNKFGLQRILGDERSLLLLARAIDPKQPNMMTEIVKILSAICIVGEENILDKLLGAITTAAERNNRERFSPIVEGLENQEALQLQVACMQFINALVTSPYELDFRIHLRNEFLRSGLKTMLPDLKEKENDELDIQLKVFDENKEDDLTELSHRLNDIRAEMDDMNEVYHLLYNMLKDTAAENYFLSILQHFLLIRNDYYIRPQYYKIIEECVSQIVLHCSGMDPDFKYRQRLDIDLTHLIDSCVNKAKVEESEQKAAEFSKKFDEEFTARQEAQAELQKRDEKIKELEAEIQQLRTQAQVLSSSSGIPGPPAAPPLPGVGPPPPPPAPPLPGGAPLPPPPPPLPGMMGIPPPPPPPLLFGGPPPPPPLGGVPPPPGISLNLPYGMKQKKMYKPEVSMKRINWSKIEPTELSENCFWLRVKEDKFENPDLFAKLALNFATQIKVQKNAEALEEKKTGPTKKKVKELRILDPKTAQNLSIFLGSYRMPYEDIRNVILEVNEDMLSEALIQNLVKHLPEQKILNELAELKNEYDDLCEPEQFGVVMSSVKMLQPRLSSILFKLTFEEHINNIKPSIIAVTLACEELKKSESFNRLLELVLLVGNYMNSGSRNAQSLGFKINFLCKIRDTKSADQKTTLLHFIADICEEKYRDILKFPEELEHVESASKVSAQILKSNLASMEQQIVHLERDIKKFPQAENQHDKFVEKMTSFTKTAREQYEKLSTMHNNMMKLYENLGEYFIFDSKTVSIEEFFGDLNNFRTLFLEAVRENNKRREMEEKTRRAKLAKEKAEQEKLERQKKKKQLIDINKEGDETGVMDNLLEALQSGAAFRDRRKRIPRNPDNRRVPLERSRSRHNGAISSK
UniProt P49116: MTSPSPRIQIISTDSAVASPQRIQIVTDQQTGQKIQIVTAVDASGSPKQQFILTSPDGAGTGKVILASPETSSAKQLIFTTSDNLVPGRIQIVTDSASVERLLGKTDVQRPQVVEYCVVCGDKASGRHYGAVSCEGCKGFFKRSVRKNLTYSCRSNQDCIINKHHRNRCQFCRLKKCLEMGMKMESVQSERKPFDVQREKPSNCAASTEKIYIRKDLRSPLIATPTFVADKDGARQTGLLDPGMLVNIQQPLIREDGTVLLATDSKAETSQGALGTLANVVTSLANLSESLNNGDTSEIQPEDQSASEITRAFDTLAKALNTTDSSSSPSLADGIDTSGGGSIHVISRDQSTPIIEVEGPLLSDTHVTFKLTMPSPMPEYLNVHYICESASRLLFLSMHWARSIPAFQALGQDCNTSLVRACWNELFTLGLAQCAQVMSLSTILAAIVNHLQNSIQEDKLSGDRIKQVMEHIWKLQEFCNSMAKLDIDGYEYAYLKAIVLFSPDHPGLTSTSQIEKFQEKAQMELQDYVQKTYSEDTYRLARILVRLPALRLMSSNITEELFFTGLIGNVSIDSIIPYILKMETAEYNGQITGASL
UniProt Q14919: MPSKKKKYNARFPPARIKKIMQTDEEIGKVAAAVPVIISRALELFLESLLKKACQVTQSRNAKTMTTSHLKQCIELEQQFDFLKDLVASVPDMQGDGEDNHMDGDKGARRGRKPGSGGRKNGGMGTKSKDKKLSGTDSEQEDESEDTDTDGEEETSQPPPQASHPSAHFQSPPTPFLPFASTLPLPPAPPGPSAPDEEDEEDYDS
UniProt Q9BQ75: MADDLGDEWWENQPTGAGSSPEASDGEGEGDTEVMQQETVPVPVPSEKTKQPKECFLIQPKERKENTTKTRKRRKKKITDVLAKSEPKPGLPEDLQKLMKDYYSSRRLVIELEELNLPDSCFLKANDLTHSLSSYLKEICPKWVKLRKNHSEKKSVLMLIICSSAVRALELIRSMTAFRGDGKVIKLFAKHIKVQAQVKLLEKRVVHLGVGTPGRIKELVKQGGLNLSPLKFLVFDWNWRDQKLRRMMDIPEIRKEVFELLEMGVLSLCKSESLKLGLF
UniProt O14662: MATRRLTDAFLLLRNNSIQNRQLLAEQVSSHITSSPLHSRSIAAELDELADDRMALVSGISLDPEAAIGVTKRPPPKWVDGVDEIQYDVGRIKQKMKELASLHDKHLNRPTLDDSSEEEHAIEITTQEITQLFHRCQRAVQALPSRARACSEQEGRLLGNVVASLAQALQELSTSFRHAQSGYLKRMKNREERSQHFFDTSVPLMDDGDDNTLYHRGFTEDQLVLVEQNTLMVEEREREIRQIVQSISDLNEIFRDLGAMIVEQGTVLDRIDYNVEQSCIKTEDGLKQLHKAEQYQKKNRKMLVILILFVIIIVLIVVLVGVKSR
UniProt Q6NXR4: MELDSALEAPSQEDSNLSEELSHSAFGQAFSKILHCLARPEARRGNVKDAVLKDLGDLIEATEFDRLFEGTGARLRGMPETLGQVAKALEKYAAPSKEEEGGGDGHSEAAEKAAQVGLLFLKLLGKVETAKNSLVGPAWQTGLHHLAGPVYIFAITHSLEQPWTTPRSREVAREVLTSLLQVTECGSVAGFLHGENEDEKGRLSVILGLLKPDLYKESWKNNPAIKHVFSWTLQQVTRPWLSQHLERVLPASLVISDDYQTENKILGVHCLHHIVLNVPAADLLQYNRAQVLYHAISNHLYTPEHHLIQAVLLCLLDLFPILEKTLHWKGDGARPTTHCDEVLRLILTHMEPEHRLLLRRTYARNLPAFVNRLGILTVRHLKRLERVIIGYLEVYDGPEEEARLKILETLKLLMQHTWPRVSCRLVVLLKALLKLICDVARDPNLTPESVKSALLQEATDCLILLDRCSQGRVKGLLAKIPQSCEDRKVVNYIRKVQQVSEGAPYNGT
UniProt O00244: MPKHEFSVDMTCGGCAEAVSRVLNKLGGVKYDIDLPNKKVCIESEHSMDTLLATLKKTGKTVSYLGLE
UniProt P15954, whole entry: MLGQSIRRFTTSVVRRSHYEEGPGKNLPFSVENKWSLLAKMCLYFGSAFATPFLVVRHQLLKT
UniProt Q13557, whole entry: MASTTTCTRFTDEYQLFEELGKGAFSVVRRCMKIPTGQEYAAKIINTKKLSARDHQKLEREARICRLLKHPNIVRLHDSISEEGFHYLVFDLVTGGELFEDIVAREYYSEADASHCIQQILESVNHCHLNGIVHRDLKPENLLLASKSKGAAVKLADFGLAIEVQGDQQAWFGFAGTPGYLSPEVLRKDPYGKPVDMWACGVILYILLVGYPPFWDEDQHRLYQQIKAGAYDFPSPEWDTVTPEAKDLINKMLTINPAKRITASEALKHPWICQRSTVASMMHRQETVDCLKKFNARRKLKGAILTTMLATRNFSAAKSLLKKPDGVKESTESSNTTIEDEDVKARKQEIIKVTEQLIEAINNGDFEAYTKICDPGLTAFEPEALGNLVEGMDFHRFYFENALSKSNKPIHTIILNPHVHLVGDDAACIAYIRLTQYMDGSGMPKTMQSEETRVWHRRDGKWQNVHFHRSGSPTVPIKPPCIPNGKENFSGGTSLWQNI
UniProt O43772: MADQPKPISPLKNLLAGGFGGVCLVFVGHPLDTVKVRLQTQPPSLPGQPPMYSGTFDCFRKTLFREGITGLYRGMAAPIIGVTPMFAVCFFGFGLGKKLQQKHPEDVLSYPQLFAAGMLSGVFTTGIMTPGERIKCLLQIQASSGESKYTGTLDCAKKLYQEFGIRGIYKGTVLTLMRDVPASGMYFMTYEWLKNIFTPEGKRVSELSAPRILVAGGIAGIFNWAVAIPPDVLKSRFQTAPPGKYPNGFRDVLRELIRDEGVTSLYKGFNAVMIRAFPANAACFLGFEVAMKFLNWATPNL
UniProt P08133: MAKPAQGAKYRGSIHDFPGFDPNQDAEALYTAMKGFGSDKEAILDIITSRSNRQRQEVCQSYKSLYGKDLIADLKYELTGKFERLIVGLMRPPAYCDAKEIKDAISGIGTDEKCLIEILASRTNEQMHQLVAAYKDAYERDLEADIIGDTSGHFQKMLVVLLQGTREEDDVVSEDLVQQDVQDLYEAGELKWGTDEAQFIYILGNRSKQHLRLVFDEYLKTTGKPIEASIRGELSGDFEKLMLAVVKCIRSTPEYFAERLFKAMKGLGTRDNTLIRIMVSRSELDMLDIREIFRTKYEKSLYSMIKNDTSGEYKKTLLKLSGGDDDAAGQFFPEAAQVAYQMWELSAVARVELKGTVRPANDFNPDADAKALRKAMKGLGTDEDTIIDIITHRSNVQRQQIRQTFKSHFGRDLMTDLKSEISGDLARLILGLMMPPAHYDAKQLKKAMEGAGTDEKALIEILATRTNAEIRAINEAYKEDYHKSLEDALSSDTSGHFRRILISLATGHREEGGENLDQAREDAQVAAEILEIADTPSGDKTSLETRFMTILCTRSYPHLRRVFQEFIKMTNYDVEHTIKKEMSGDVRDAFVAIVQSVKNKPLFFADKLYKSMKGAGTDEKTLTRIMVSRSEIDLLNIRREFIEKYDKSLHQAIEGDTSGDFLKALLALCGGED
UniProt Q9UH03, whole entry: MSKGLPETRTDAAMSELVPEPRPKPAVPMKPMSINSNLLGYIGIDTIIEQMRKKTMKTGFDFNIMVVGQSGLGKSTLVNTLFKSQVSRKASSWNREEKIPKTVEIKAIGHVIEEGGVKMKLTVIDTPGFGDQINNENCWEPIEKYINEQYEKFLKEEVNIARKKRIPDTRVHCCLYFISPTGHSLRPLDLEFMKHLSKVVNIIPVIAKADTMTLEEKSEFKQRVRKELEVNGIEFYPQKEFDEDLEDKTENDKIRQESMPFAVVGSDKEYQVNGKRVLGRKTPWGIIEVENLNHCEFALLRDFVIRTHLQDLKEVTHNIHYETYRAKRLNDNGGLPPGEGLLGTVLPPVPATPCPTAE

Compound: Nc1nc2c(ncn2[C@@H]2O[C@H](COP(=O)(O)OP(=O)(O)OP(=O)(O)O)[C@@H](O)[C@H]2O)c(=O)[nH]1 [guanosine triphosphate]
Experiment: NP40-soluble protein abundance relative to vehicle (solubility fold change) (ratio); higher = more soluble protein in presence of GTP
Conditions: concentration: 4mM
Summary of the method: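 Eight concentrations, 0.1 to 10 mM, were tested on Jurkat crude lysate for 10 min at room temperature and then 3 min at 37 °C, in three independent experiments. The lysate was solubilised with 0.8% NP40 and benzonase, ultracentrifuged, and the supernatant TMT-labelled for LC-MS/MS. Each value is the fold change against the detergent-processed vehicle in its own replicate, from vsn-normalised intensities.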

**Q.** With “C9K025 and related entries (UniProt P18077)” as the target, how does the NP40-soluble protein abundance read?
**A.** 0.894 ± 0.38

**Q.** How did the NP40-soluble protein abundance turn out when “B4E2Q0 and related entries (UniProt P98194)” was run?
**A.** 0.985 ± 0.04

**Q.** With “B7Z9U0 and related entries (UniProt Q9UFF9)” as the target, how does the NP40-soluble protein abundance read?
**A.** 1.16 ± 0.18

**Q.** With “B4E1G1 and related entries (UniProt Q9BUN8)” as the target, how does the NP40-soluble protein abundance read?
**A.** 1.04 ± 0.039

**Q.** How did the NP40-soluble protein abundance turn out when “C9J8Q1 and related entries (UniProt Q9UMS0)” was run?
**A.** 0.912 ± 0.11

**Q.** With “B1AH77 and related entries (UniProt P15153)” as the target, how does the NP40-soluble protein abundance read?
**A.** 0.847 ± 0.059

**Q.** For “B0YIW6 and related entries (UniProt P48444)”, which NP40-soluble protein abundance is on record?
**A.** 1.02 ± 0.1

**Q.** Which NP40-soluble protein abundance does the source give for “B4DGU4 and related entries (UniProt P35222)” here?
**A.** 1.03 ± 0.095

**Q.** With “B7ZBK4 and related entries (UniProt Q92664)” as the target, how does the NP40-soluble protein abundance read?
**A.** 1.02 ± 0.16

**Q.** “C9J6U3 and related entries (UniProt O60879)” was tested. Which NP40-soluble protein abundance did it give?
**A.** 0.974 ± 0.058

**Q.** How did the NP40-soluble protein abundance turn out when “C9J2Y1 and related entries (UniProt P49116)” was run?
**A.** 0.973 ± 0.047

**Q.** Which NP40-soluble protein abundance does the source give for “C9JCC6 and related entries (UniProt Q14919)” here?
**A.** 0.929 ± 0.1

**Q.** “B4DDD6 and related entries (UniProt Q9UJU6)” was tested. Which NP40-soluble protein abundance did it give?
**A.** 0.875 ± 0.06

**Q.** Which NP40-soluble protein abundance does the source give for “B4DJ62 and related entries (UniProt Q99719)” here?
**A.** 1.089 ± 0.0024

**Q.** For “D6RIH7 and related entries (UniProt Q9UM22)”, which NP40-soluble protein abundance is on record?
**A.** 0.902 ± 0.12

**Q.** For “A6NIW2 and related entries (UniProt Q5JSL3)”, which NP40-soluble protein abundance is on record?
**A.** 1.05 ± 0.11

**Q.** With “C9IY68 and related entries (UniProt Q9BQ75)” as the target, how does the NP40-soluble protein abundance read?
**A.** 1.17 ± 0.069

**Q.** Which NP40-soluble protein abundance does the source give for “B8ZZU8 and related entries (UniProt Q15370)” here?
**A.** 0.921 ± 0.075

**Q.** How did the NP40-soluble protein abundance turn out when “B7ZBM8 and related entries (UniProt O14662)” was run?
**A.** 1.07 ± 0.029

**Q.** “E5RIH5 and related entries (UniProt Q6NXR4)” was tested. Which NP40-soluble protein abundance did it give?
**A.** 1.05 ± 0.015

**Q.** Which NP40-soluble protein abundance does the source give for “A8MT02 and related entries (UniProt P14678)” here?
**A.** 1.24 ± 0.26

**Q.** Which NP40-soluble protein abundance does the source give for “D6RER5 and related entries (UniProt Q9NVA2)” here?
**A.** 1.04 ± 0.11

**Q.** Which NP40-soluble protein abundance does the source give for “E5RGN3 and related entries (UniProt O00244)” here?
**A.** 0.887 ± 0.053

**Q.** “D6RHU3 and related entries (UniProt P55212)” was tested. Which NP40-soluble protein abundance did it give?
**A.** 0.886 ± 0.07

**Q.** How did the NP40-soluble protein abundance turn out when “D6R9Z7 and related entries (UniProt P15954)” was run?
**A.** 1.03 ± 0.1

**Q.** How did the NP40-soluble protein abundance turn out when “C9J494 and related entries (UniProt Q9H000)” was run?
**A.** 0.919 ± 0.044

**Q.** How did the NP40-soluble protein abundance turn out when “E7EMW7 and related entries (UniProt O95071)” was run?
**A.** 1.32 ± 0.28

**Q.** “A8K7Q2 and related entries (UniProt P11142)” was tested. Which NP40-soluble protein abundance did it give?
**A.** 0.957 ± 0.098

**Q.** For “E7EMA9 and related entries (UniProt Q32M88)”, which NP40-soluble protein abundance is on record?
**A.** 0.986 ± 0.24

**Q.** For “B4DWF2 and related entries (UniProt Q9UKS7)”, which NP40-soluble protein abundance is on record?
**A.** 1.18 ± 0.051

**Q.** How did the NP40-soluble protein abundance turn out when “D6R938 and related entries (UniProt Q13557)” was run?
**A.** 1.1 ± 0.1

**Q.** “B4DKB2 and related entries (UniProt P42892)” was tested. Which NP40-soluble protein abundance did it give?
**A.** 1.36 ± 0.026

**Q.** For “C9JPE1 and related entries (UniProt O43772)”, which NP40-soluble protein abundance is on record?
**A.** 0.866 ± 0.12

**Q.** “E5RJF5 and related entries (UniProt P08133)” was tested. Which NP40-soluble protein abundance did it give?
**A.** 0.85 ± 0.027

**Q.** With “D6RAN4 and related entries (UniProt P32969)” as the target, how does the NP40-soluble protein abundance read?
**A.** 1.02 ± 0.38

**Q.** With “A8MUS3 and related entries (UniProt P62750)” as the target, how does the NP40-soluble protein abundance read?
**A.** 0.946 ± 0.19

**Q.** How did the NP40-soluble protein abundance turn out when “A8MXP9 and related entries (UniProt P43243)” was run?
**A.** 1.02 ± 0.032

**Q.** With “B1AHR1 and related entries (UniProt Q9UH03)” as the target, how does the NP40-soluble protein abundance read?
**A.** 1.11 ± 0.16
